# Screening data

From PubChem BioAssay record AID588513 (NCATS, 2011).

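Estrogen receptor alpha reporter cells (HEK293, beta-lactamase ratio), antagonist mode, with potency fitted from readings taken about 18 hours after dosing. A dilution series, mostly topping out at 76.9 µM. Fitted potency (AC50); a lower value means a more potent compound. Active requires a well-fitted curve in the sought direction with a large enough effect and a flat control signal; the rule for inconclusive calls is not stated here.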

Values are in µM. Every entry below has the call inconclusive. Only part of the assay is shown, chiefly results filed as inconclusive. Potencies fitted to partial, single-point or poorly fitting curves are rough. The first word of each remark tells which way the curve ran; it can be opposite to the aim of the assay.

| Compound | Potency (µM) | curve as filed |
|---|---|---|
| `c1ccc2occc2c1` | 1259 | fluorescent, side channel, single point |
| `CCCCCCCCCc1ccc(O)cc1` | 31.62 | falling, single point |
| `Nc1ccc2cc3ccccc3cc2c1` | 25.12 | falling, partial curve, poor fit |
| `CCSC(=O)N1CCCCCC1` | 0.2512 | inhibitor, full curve, poor fit |
| `Cc1cc(C(C)(C)CC(C)(C)C)ccc1OCCOCC[N+](C)(C)Cc1ccccc1` | 50.12 | inhibitor, single point |
| `O=C(Oc1ccccc1)c1ccccc1O` | 39.81 | falling, single point |
| `NC(=Nc1ccccc1)Nc1ccccc1` | 12.59 | inhibitor, partial curve, poor fit |
| `CCCOC(=O)c1cc(O)c(O)c(O)c1` | 7.08 | activator, full curve, poor fit |
| `Nc1cccc2c(N)cccc12` | 44.67 | falling, single point |
| `C=C[C@@]1(C)CC(=O)[C@]2(O)[C@@]3(C)[C@@H](O)CCC(C)(C)[C@@H]3[C@H](O)[C@H](OC(C)=O)[C@@]2(C)O1` | 3.548 | activator, full curve, poor fit |
| `Cc1c2ccccc2c(C)c2c1ccc1ccccc12` | 35.48 | fluorescent, side channel, partial curve, poor fit |
| `OCc1c[nH]c2ccccc12` | 50.12 | falling, partial curve, poor fit |
| `Nc1nc(N)c2nc(-c3ccccc3)c(N)nc2n1` | 44.67 | fluorescent, side channel, single point |
| `Nc1ccc(Cc2ccc(N)c(Cl)c2)cc1Cl` | 44.67 | falling, partial curve, poor fit |
| `O=C1OC(O)C(C(Cl)Cl)=C1Cl` (stereo unspecified) | 28.18 | falling, single point |
| `COc1nc(C)nc(NC(=O)NS(=O)(=O)c2ccccc2OCCCl)n1` | 50.12 | fluorescent, side channel, single point |
| `CC1(C)CCC(C)(C)c2cc(C(=O)Nc3ccc(C(=O)O)cc3)ccc21` | 50.12 | fluorescent, side channel, single point |

For reference, 2 entries once more:

Result for O=C(Oc1ccccc1)c1ccccc1O was Potency 39.81 µM (falling, single point).
Result for Nc1nc(N)c2nc(-c3ccccc3)c(N)nc2n1 was Potency 44.67 µM (fluorescent, side channel, single point).